Experimental data: patent EP4722249A1 (AIMED BIO INC., dated 2026)
Changes are numbered by the printed parent chain. These are yes or no findings as the source states them, for the method shown. A result given as binding can be weak or reduced; the word gives no strength.

B1: P001009v1 (antibody, V domains shown)
VH: EVQLLESGGGLVQPGGSLRLSCAASGFTFSSYDMSWVRQAPGKGLEWVSWISHGGGSIYYADSVKGRFTISRDNSKNTLYLQMNSLRAEDTAVYYCARDAPAYSAPLFDYWGQGTLVTVSS
VL: QSVLTQPPSASGTPGQRVTISCSGSSSNIGNNAVNWYQQLPGTAPKLLIYYDKNRPSGVPDRFSGSKSGTSASLAISGLRSEDEADYYCAAWDDRLSGYVFGGGTKLTVL
B2: P001009v2 (antibody, V domains shown)
VH: B1 VH
VL: B1 VL with D94R, R95S

Biological target: monkey CD200R1 (monkey)
Assay: ELISA

Binder | binding
B1 | binds
B2 | binds
